PubChem BioAssay AID686943 – Drosophila RNAi Screening Center | 2013
The screen tested about 23,000 reagents; this is a random part of those that have a named target and a result. 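Extra replicates exist only for a retested subset of genes; insulin dose and duration not given; both raised and lowered dpERK matter.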 Further read-outs or replicates are left out here. Not given: the amount of reagent, the time to read-out.

- Screen: 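Knockdowns that increase or decrease active ERK after insulin receptor stimulation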 (primary screen)
- System: Drosophila S2R+ haemocyte-like cells expressing YFP-tagged ERK (Rolled)
- Reagents: long dsRNA against Drosophila genes
- Conditions: insulin stimulation versus unstimulated cells; dose and duration not given
- Measurement: 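Antibody staining for doubly phosphorylated ERK divided by ERK-YFP signal, as plate z-scores, in insulin-treated and untreated cells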
- Reading the numbers: replicate 1, z-score of dpERK with insulin and replicate 2, z-score of dpERK with insulin: higher = more active ERK per ERK-YFP after insulin

St1 (Sulfotransferase 1) [DRSC04504]
- replicate 1, z-score of dpERK with insulin: -0.37
- replicate 2, z-score of dpERK with insulin: 0.08

CG17744 [DRSC10286]
- replicate 1, z-score of dpERK with insulin: 1.06
- replicate 2, z-score of dpERK with insulin: 0.12

Ssl2 (Strictosidine synthase-like 2) [DRSC14395]
- replicate 1, z-score of dpERK with insulin: 0.62
- replicate 2, z-score of dpERK with insulin: 0.11

Ssl2 (Strictosidine synthase-like 2) [DRSC22796]
- replicate 1, z-score of dpERK with insulin: 0.57
- replicate 2, z-score of dpERK with insulin: 0.34

wds (will die slowly) [DRSC18852]
- replicate 1, z-score of dpERK with insulin: -0.19
- replicate 2, z-score of dpERK with insulin: 0.21

Kdm5 (Lysine demethylase 5) [DRSC03133]
- replicate 1, z-score of dpERK with insulin: 0.05
- replicate 2, z-score of dpERK with insulin: -0.03

nero [DRSC15432]
- replicate 1, z-score of dpERK with insulin: 0
- replicate 2, z-score of dpERK with insulin: -0.23

Ugt35A1 (UDP-glycosyltransferase family 35 member A1) [DRSC16892]
- replicate 1, z-score of dpERK with insulin: 0.98
- replicate 2, z-score of dpERK with insulin: -0.17

Wnt4 (Wnt oncogene analog 4) [DRSC00976]
- replicate 1, z-score of dpERK with insulin: -0.88
- replicate 2, z-score of dpERK with insulin: -1.91

Wnt4 (Wnt oncogene analog 4) [DRSC03477]
- replicate 1, z-score of dpERK with insulin: -0.17
- replicate 2, z-score of dpERK with insulin: -0.11

Jon65Ai (Jonah 65Ai) [DRSC09731]
- replicate 1, z-score of dpERK with insulin: 0.21
- replicate 2, z-score of dpERK with insulin: 0.69

pds5 [DRSC06670]
- replicate 1, z-score of dpERK with insulin: 0.87
- replicate 2, z-score of dpERK with insulin: 0.3

Reprinted from the listing, 2 entries:
nero [DRSC15432]
- replicate 1, z-score of dpERK with insulin: 0
- replicate 2, z-score of dpERK with insulin: -0.23

Ugt35A1 (UDP-glycosyltransferase family 35 member A1) [DRSC16892]
- replicate 1, z-score of dpERK with insulin: 0.98
- replicate 2, z-score of dpERK with insulin: -0.17
